# Measurements from PubChem BioAssay AID651640 (Broad Institute, 2012).
# Values joined by “and” are separate entries in the source; they are usually repeats but may differ in a detail not shown here. Identical values can stand only once. About 6,000 (1.7%) of roughly 350,000 compounds were called active. Inconclusive results, whose numbers are uncertain, are shown with a selection of clear calls. Cut-off read from the data, not from the text of the source: active = CPE inhibition above about 20% (passing the limit was not always enough); inconclusive = no clear call, values can overlap the other calls; tested in BHK-21 cells. The source holds several records for some structures; these can differ, active in one and inactive in another.
# Test: protection of cells from dengue 2 killing – plate reader, single concentration, primary screen (AID 651640);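 note: 0% = median of neutral control wells and 100% = median of positive control wells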
# Details: DENV2-infected cells, cytopathic effect rescue, at 9.99 µM, active compounds read high
row,Structure (SMILES),CPE inhibition
1,C[C@H](CO)N1C[C@H](C)[C@@H](CN(C)S(=O)(=O)c2ccccc2)OCc2ccccc2-c2ccccc2C1=O,inconclusive: 21.7%
2,CN1c2ccc(Br)cc2[C@H]2[C@H](CCN2C(=O)Cc2cccnc2)[C@H]1CO,inconclusive: 24.6%
3,O=C(COC(=O)CN1C(=O)c2ccccc2C1=O)Nc1ccccc1C(F)(F)F,inconclusive: 24.9%
4,Cc1ccc(-c2ccccc2[C@@H]2[C@@H](C#N)N(C(=O)Cc3cccnc3)[C@H]2CO)cc1,inactive: -9.1%
5,Cc1ccccc1-n1ncc2c1CC(C)(C)CC2NC(=O)CSc1ccncc1 (stereo not drawn),active: 108%
6,CCNC(=O)[C@@H]1[C@@H](CO)[C@@H]2Cn3c(cccc3=O)[C@H]1N2Cc1cccc(Cl)c1,inactive: 11.8%
7,COc1ccccc1NC(=O)N1CC[C@H]2[C@@H]1c1cc(C#Cc3ccc(F)cc3)ccc1N(C)[C@H]2CO,active: 34.2%
8,O=C(/C=C/c1cccs1)c1ccc(N2CCOCC2)cc1,inconclusive: 23.3%
9,N#C[C@@H]1[C@@H](c2ccc(-c3ccccc3)cc2)[C@H](CO)N1C(=O)Cc1ccccc1,inconclusive: 34.1%
10,C[C@@H]1CN([C@@H](C)CO)C(=O)Cc2cc(NC(=O)C3CCCCC3)ccc2O[C@H]1CN(C)CC1CC1,active: 75.8%
11,CC1=CC(C)(C)Nc2ccccc21,active: 28.1%
12,COc1ccccc1N(CC(=O)Nc1cc(S(=O)(=O)N(C)C)ccc1C)S(=O)(=O)c1cccs1,inactive: 7.1%
13,COc1ccc(C2=Nn3c(nnc3-c3ccccc3OC)SC2)cc1OCC1CC1,active: 25.1%
14,C[C@H](CO)N1C[C@H](C)[C@@H](CN(C)S(=O)(=O)c2ccc(Cl)cc2)OCCCC[C@H](C)Oc2ccc(NC(=O)CCC(F)(F)F)cc2C1=O,inconclusive: 31.2%
15,C#CCOCCOCCOCCNc1nc(N2CCN(C(=O)[C@H](CCC(=O)O)n3cc([C@@H](N)CC(N)=O)nn3)CC2)nc(N2CCN(C(=O)[C@H](CCC(=O)O)n3cc([C@@H](N)CC(N)=O)nn3)CC2)n1,inconclusive: 20.3%
16,O=C(NC1CCCC1)[C@@H]1N[C@@H]2c3ccc(-c4cccc(F)c4)c(=O)n3C[C@@H]2[C@H]1CO,inconclusive: 22.3%
17,COC(=O)c1ccc2nc(-c3ccc(OC)c(OC)c3)c(Cc3ccsc3)n2c1,inconclusive: 50.2%
18,CCOc1ccc(NS(=O)(=O)c2ccc(NC(=O)c3cccnc3)c(OC)c2)cc1,inconclusive: 34.1%
19,CO[C@H]1CN(C)C(=O)c2cc(NC(C)=O)ccc2OC[C@@H](C)N(Cc2cncnc2)C[C@@H]1C,inactive: -1.27%
20,CN1CCN(C(=O)C2=C[C@H](C3CCCCC3)C[C@H](OCc3ccc(CO)cc3)O2)CC1,inactive: -6.44% and inactive: -0.49%
21,CCOC(=O)N1CCC(N2C(=O)c3ccccc3C2Nc2ccc(S(=O)(=O)N(CC)CC)cc2)CC1 (stereo not drawn),inactive: 0.103%
22,CC(C)(C)[S@](=O)N1Cc2cc(C(=O)N3CCCCC3)nc(-c3cccc(C4=CCCC4)c3)c2[C@@H]1CCO,active: 26.1%
23,CC(C)NC(=O)N(C)C[C@@H]1Oc2ccc(NC(=O)C3CCCCC3)cc2CC(=O)N([C@H](C)CO)C[C@H]1C,inconclusive: 34.5%
24,COc1ccc(Nc2ccc([N+](=O)[O-])cn2)cc1,inactive: -2.16%
25,O=C(C1CCCN1S(=O)(=O)c1ccc(Cl)cc1)N1CCN(c2ccccc2)CC1 (stereo not drawn),inconclusive: 45.3%

row,Structure (SMILES),CPE inhibition
1,O=C(O)C[C@@H]1C[C@H]2c3cc(NC(=O)Nc4ccc(F)cc4)ccc3O[C@H]2[C@@H](CO)O1,inactive: 1.01%
2,C=C(C)CN(CC)C(=O)CN1C(=O)NC2(CCc3ccccc32)C1=O (stereo not drawn),inconclusive: 38.7%
3,CCSc1ccc([C@@H]2[C@@H]3C(=O)N(C)C(=O)[C@@H]3[C@]3(C(=O)OC)CCCCN23)cc1OC,inconclusive: 24.8%
4,C=CC[C@@H](CC(=O)N[C@H](CO)Cc1ccccc1)C(=O)N[C@@H](C)COC(=O)[C@@H](CC=C)CC(=O)OC(C)(C)C,inconclusive: 47.2%
5,CCOC(=O)C1=C(COC(=O)COc2cc(C)ccc2C)NC(=O)NC1C (stereo not drawn),inconclusive: 43.1%
6,CN1CCN(c2ccc(S(=O)(=O)N3CCCCC3)cc2N)CC1,inconclusive: 28.9%
7,COc1ccc2c3c(n(C)c2c1)[C@H](CO)N(CC1CCOCC1)CC31CN(C(=O)c2cccc(F)c2)C1,inconclusive: 71.3%
8,O=C(c1cccc(NS(=O)(=O)c2cccc([N+](=O)[O-])c2)c1)N1CCOCC1,inconclusive: 31.9%
9,CCn1c(SCc2cccc(F)c2)nnc1-c1cccnc1,inactive: -0.722%
10,N#C[C@H]1[C@@H](c2ccc(-c3ccccc3F)cc2)[C@@H](CO)N1C(=O)Cc1ccccc1,inconclusive: 37.5%
11,O=C(Nc1ccc(Cc2ccncc2)cc1)c1cccs1,active: 30.8%
12,C[C@@H]1CN([C@@H](C)CO)C(=O)c2cccc(NC(=O)c3ccncc3)c2O[C@@H]1CN(C)Cc1ccc(C(=O)O)cc1,inconclusive: 45.7%
13,NC(CCc1ccccc1)c1csc(Nc2ccc(C(F)(F)F)cn2)n1 (stereo not drawn),inconclusive: 47.6%
14,C[C@@H]1CN([C@@H](C)CO)S(=O)(=O)c2ccc(-c3cncnc3)cc2O[C@@H]1CN(C)Cc1ccccc1,inactive: 5.37%
15,Cc1cc(C(=O)OCC(=O)N2CCC(C)CC2)c2ccccc2n1,inconclusive: 22.3%
16,O=C1c2ccccc2[C@@H]2C[C@@H](O)[C@H](Nc3cccc4ccccc34)CCN12,active: 26%
17,COc1ccc(-c2ccnc(-c3ccc(O)cc3)n2)cc1,inactive: -2.54%
18,O=[N+]([O-])c1ccc(CSc2ncnc3ccccc23)cc1,inconclusive: 23.1%
19,CCOC(=O)N1CCN(C(=O)c2cc(OCC)c(OCC)c(OCC)c2)CC1,inconclusive: 20.3%
20,O=C(COc1ccccc1Cl)Nc1nnc(S(=O)(=O)N2CCCCCC2)s1,inconclusive: 22%
21,Cn1c(CCC(=O)OCC(=O)NCC(F)(F)F)nc(=O)c2ccccc21,inactive: -2.63%
22,O=C(NCc1nc2ccccc2[nH]1)C1=C[C@H](C2CCCCC2)C[C@H](OCc2ccc(CO)cc2)O1,active: 21.1%
23,Cc1cc(C(=O)Nc2cccc3c2O[C@@H](CN(C)Cc2ccc(Oc4ccccc4)cc2)[C@H](C)CN([C@H](C)CO)C3=O)n(C)n1,inactive: 1.73%
24,Cc1ccccc1-n1c(SCC(=O)NCC2CCCO2)nnc1-c1ccncc1 (stereo not drawn),inconclusive: 48.3%
25,Cc1cc(C(=O)c2ccc3ccccc3c2)c(C)o1,inactive: 8.42%

row,Structure (SMILES),CPE inhibition
1,COc1ccccc1CCNC(=O)C(=O)NCCC1CCCCN1S(=O)(=O)c1cccs1 (stereo not drawn),inconclusive: 26.2%
2,CN1OC[C@@H]2CN(S(=O)(=O)c3cc(Cl)cc(Cl)c3)[C@H](c3ccc(-c4ccc(C#N)cc4)cc3)C[C@@H]21,inconclusive: 26.7%
3,COc1ccccc1CNC(=O)C[C@H]1CC[C@H]2[C@@H](COc3ccc(NC(C)=O)cc3C(=O)N2C)O1,inactive: 0.127%
4,Cc1ccc(S(=O)(=O)Nc2ccc3c(c2)C(=O)N([C@H](C)CO)C[C@H](C)[C@H](CN(C)S(=O)(=O)c2c(C)noc2C)O3)cc1,inconclusive: 24.2%
5,C/C=C/c1ccc([C@@H]2[C@@H](CO)N(C(=O)C3CCC3)C23CN(S(=O)(=O)CC)C3)cc1,inconclusive: 29.3%
6,Cc1noc(C)c1NC(=O)N(C)C[C@@H]1Oc2c(NC(=O)C3CCOCC3)cccc2C(=O)N([C@H](C)CO)C[C@@H]1C,inactive: 2.42%
7,Cc1[nH]n(-c2ccc(Br)cc2)c(=O)c1/C=N/NC(=O)c1ccccc1,inactive: 19.4%
8,O=C(N[C@H]1CC[C@@H](CCNS(=O)(=O)c2ccc(Cl)cc2)O[C@@H]1CO)c1ccccn1,active: 53%
9,CN(C)Cc1ccc(-c2nc3cccc4c3n2CCNC4=O)cc1,inconclusive: 55.1%
10,CCCCCCCCCCCCCCCC[N+](C)(C)CCl,inactive: 18.4%
11,COc1ccc(NC(=O)c2ccco2)c2ccccc12,inconclusive: 37.9%
12,CCOC(=O)CSc1nc2c(c(=O)[nH]c(=O)n2C)n1Cc1ccccc1,inconclusive: 25.8%
13,CCn1c(SCC(=O)NCC2CCCO2)nc2c(c1=O)SC(C)C2 (stereo not drawn),inconclusive: 22.2%
14,COc1ccc(C(=O)Nc2ccc3c(c2)C(=O)N(C)C[C@H](OC)[C@@H](C)CN[C@@H](C)CO3)cc1,inconclusive: 29.6%
15,COCCNC(=O)C[C@@H]1C[C@H]2c3cc(NC(=O)C4CCOCC4)ccc3O[C@H]2[C@H](CO)O1,active: 24.2%
16,CC1OC(C2CCCCC2)Cc2[nH]c(=S)[nH]c(=O)c21 (stereo not drawn),inconclusive: 71.8%
17,O=C(Nc1ccc(F)cc1)N1CCN(c2ncccn2)CC1,inactive: -2.7%
18,C[C@@H]1CN([C@H](C)CO)C(=O)Cc2cc(NC(=O)Nc3cccc4ccccc34)ccc2O[C@H]1CN(C)Cc1ccc2c(c1)OCO2,inactive: 2.16%
19,COc1ccc(NC(=O)CSc2ccc3nnc(-c4cccnc4)n3n2)cc1,inconclusive: 25.4%
20,CNC(=O)C[C@H]1CC[C@@H]2[C@H](COc3ccc(NC(=O)c4cccc(OC)c4)cc3C(=O)N2C)O1,inconclusive: 21.5%
21,C[C@@H]1CN([C@H](C)CO)C(=O)c2cccc(NC(=O)C3CCCCC3)c2O[C@@H]1CN(C)C(=O)NC1CCCCC1,active: 21.7%
22,C[C@H]1CN([C@@H](C)CO)C(=O)c2cccc(NC(=O)C3CCCCC3)c2O[C@H]1CN(C)Cc1ccc2c(c1)OCO2,active: 22.9%
23,CCCNC(=O)NC[C@@H]1[C@H](c2ccc(C3=CCCC3)cc2)[C@@H](CO)N1C(C)=O,inconclusive: 16.7%
